{"source": "the supplement of paper PMC4604168 (melanoma cell lines)", "note": "The list shows a part of the results. Repeats are few or missing, and single values can be far off.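 Cells were imaged in 1,536-well plates, and nuclei stained with an antibody against cleaved PARP were counted against all DNA-stained nuclei to give the apoptosis fraction. Screening doses were chosen to leave most cells alive, and resting and induced cleaved-PARP levels differ strongly between cell lines.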", "data": [{"tested_on": "CBRC013 (line from a melanoma biopsy)", "experiment": "cleaved PARP positive nuclei fraction relative to DMSO control; melanoma cells; higher = more apoptosis", "settings": "library dose: low library concentration; 72 h", "units": {"cleaved PARP positive nuclei fraction": "%"}, "values": [{"molecule": "CC(=O)c1c(C)c2cnc(Nc3ccc(N4CCNCC4)cn3)nc2n(C2CCCC2)c1=O", "note": "[palbociclib] + Cn1cncc1[C@@](N)(c1ccc(Cl)cc1)c1ccc2c(c1)c(-c1cccc(Cl)c1)cc(=O)n2C [tipifarnib] (first compound 0.04 µM, partner dose 0.01 µM)", "cleaved PARP positive nuclei fraction": 95.7}, {"molecule": "C[C@]1(c2nc3c(C(N)=O)cccc3[nH]2)CCCN1", "note": "[Veliparib] + Cc1ccc(NC(=O)c2cccc(N(C)C)c2)cc1NC(=O)c1ccc(O)cc1 [ZM336372] (first compound 1.4 µM, partner dose 2 µM)", "cleaved PARP positive nuclei fraction": 191}, {"molecule": "C=CCn1c(=O)c2cnc(Nc3ccc(N4CCN(C)CC4)cc3)nc2n1-c1cccc(C(C)(C)O)n1", "note": "+ CN(C)S(=O)(=O)c1ccc2c(c1)/C(=C/c1cc3c([nH]1)CCCC3)C(=O)N2 [SU6656] (first compound 0.02 µM, partner dose 0.4 µM)", "cleaved PARP positive nuclei fraction": 135}, {"molecule": "Clc1ccc(Nc2nnc(Cc3ccncc3)c3ccccc23)cc1", "note": "[vatalanib] + O=C(CCCCCCC(=O)Nc1ccccc1)NO [vorinostat] (first compound 2 µM, partner dose 0.08 µM)", "cleaved PARP positive nuclei fraction": 93.1}, {"molecule": "OCc1c[nH]c2ccccc12", "note": "[Indole-3-carbinol] + COc1cc(Nc2ncc(F)c(Nc3ccc4c(n3)NC(=O)C(C)(C)O4)n2)cc(OC)c1OC [Tamatinib] (first compound 0.8 µM, partner dose 0.4 µM)", "cleaved PARP positive nuclei fraction": 91.8}, {"molecule": "COCC[n+]1c2c(n(Cc3cnccn3)c1C)C(=O)c1ccccc1C2=O", "note": "+ C=CCn1c(=O)c2cnc(Nc3ccc(N4CCN(C)CC4)cc3)nc2n1-c1cccc(C(C)(C)O)n1 [MK1775] (first compound 0.0004 µM, partner dose 0.02 µM)", "cleaved PARP positive nuclei fraction": 92.1}, {"molecule": "C=CCNC1=C2C[C@@H](C)C[C@H](OC)[C@H](O)[C@@H](C)/C=C(\\C)[C@H](OC(N)=O)[C@@H](OC)/C=C\\C=C(/C)C(=O)NC(=CC1=O)C2=O", "note": "[Tanespimycin] + COc1cc(Nc2ncc(F)c(Nc3ccc4c(n3)NC(=O)C(C)(C)O4)n2)cc(OC)c1OC [Tamatinib] (first compound 0.002 µM, partner dose 0.4 µM)", "cleaved PARP positive nuclei fraction": 185}, {"molecule": "OCc1c[nH]c2ccccc12", "note": "[Indole-3-carbinol] + C=CCn1c(=O)c2cnc(Nc3ccc(N4CCN(C)CC4)cc3)nc2n1-c1cccc(C(C)(C)O)n1 [MK1775] (first compound 0.8 µM, partner dose 0.02 µM)", "cleaved PARP positive nuclei fraction": 65}, {"molecule": "Cc1ccc(NC(=O)c2cccc(N(C)C)c2)cc1NC(=O)c1ccc(O)cc1", "note": "+ CN(NC(=O)CC(=O)NN(C)C(=S)c1ccccc1)C(=S)c1ccccc1 [STA4783] (first compound 2 µM, partner dose 0.006 µM)", "cleaved PARP positive nuclei fraction": 141}, {"molecule": "Clc1ccc(Nc2nnc(Cc3ccncc3)c3ccccc23)cc1", "note": "[vatalanib] + COc1cc2c(Oc3ccc4[nH]c(C)cc4c3F)ncnc2cc1OCCCN1CCCC1 [cediranib] (first compound 2 µM, partner dose 0.4 µM)", "cleaved PARP positive nuclei fraction": 85.8}, {"molecule": "Cn1nnc2c(C(N)=O)ncn2c1=O", "note": "[temozolomide] + O=C(O)c1ccc(-c2c[nH]c3ncc(-c4ccccc4)cc23)cc1C1CCCC1 [GSK650394] (first compound 2 µM, partner dose 0.16 µM)", "cleaved PARP positive nuclei fraction": 84}, {"molecule": "CC1(C)NC(=O)N(c2ccc([N+](=O)[O-])c(C(F)(F)F)c2)C1=O", "note": "[nilutamide] + CC(C)(C)c1cnc(CSc2cnc(NC(=O)C3CCNCC3)s2)o1 [SNS-032] (first compound 1 µM, partner dose 0.01 µM)", "cleaved PARP positive nuclei fraction": 84.1}, {"molecule": "CC(C)(C)c1cnc(CSc2cnc(NC(=O)C3CCNCC3)s2)o1", "note": "+ CN(C)S(=O)(=O)c1ccc2c(c1)/C(=C/c1cc3c([nH]1)CCCC3)C(=O)N2 [SU6656] (first compound 0.01 µM, partner dose 0.4 µM)", "cleaved PARP positive nuclei fraction": 94.3}, {"molecule": "CC(=O)c1c(C)c2cnc(Nc3ccc(N4CCNCC4)cn3)nc2n(C2CCCC2)c1=O", "note": "[palbociclib] + CN(C)S(=O)(=O)c1ccc2c(c1)/C(=C/c1cc3c([nH]1)CCCC3)C(=O)N2 [SU6656] (first compound 0.04 µM, partner dose 0.4 µM)", "cleaved PARP positive nuclei fraction": 91}, {"molecule": "CO[C@@H]1[C@H](N(C)C(=O)c2ccccc2)C[C@H]2O[C@]1(C)n1c3ccccc3c3c4c(c5c6ccccc6n2c5c31)C(=O)NC4", "note": "[Midostaurin] + C[C@@H]1CCN(C(=O)CC#N)C[C@@H]1N(C)c1ncnc2[nH]ccc12 [CP690550] (first compound 0.08 µM, partner dose 1 µM)", "cleaved PARP positive nuclei fraction": 182}, {"molecule": "O=C(CCCCCCC(=O)Nc1ccccc1)NO", "note": "[vorinostat] + CC1(C)NC(=O)N(c2ccc([N+](=O)[O-])c(C(F)(F)F)c2)C1=O [nilutamide] (first compound 0.08 µM, partner dose 1 µM)", "cleaved PARP positive nuclei fraction": 79.6}, {"molecule": "Cc1ccc(NC(=O)c2cccc(N(C)C)c2)cc1NC(=O)c1ccc(O)cc1", "note": "+ COc1cc2c(Oc3ccc4[nH]c(C)cc4c3F)ncnc2cc1OCCCN1CCCC1 [cediranib] (first compound 2 µM, partner dose 0.4 µM)", "cleaved PARP positive nuclei fraction": 122}, {"molecule": "OCc1c[nH]c2ccccc12", "note": "[Indole-3-carbinol] + CN(NC(=O)CC(=O)NN(C)C(=S)c1ccccc1)C(=S)c1ccccc1 [STA4783] (first compound 0.8 µM, partner dose 0.006 µM)", "cleaved PARP positive nuclei fraction": 171}, {"molecule": "Cn1c(Nc2ccc(C(F)(F)F)cc2)nc2cc(Oc3ccnc(-c4ncc(C(F)(F)F)[nH]4)c3)ccc21", "note": "+ NCC(=O)Nc1ccc(-n2nc(C(F)(F)F)cc2-c2ccc3c(ccc4ccccc43)c2)cc1 [OSU03012] (first compound 0.08 µM, partner dose 1 µM)", "cleaved PARP positive nuclei fraction": 152}, {"molecule": "CO[C@@H]1[C@H](N(C)C(=O)c2ccccc2)C[C@H]2O[C@]1(C)n1c3ccccc3c3c4c(c5c6ccccc6n2c5c31)C(=O)NC4", "note": "[Midostaurin] + COc1cc2c(Oc3ccc4[nH]c(C)cc4c3F)ncnc2cc1OCCCN1CCCC1 [cediranib] (first compound 0.08 µM, partner dose 0.4 µM)", "cleaved PARP positive nuclei fraction": 118}, {"molecule": "C=CCNC1=C2C[C@@H](C)C[C@H](OC)[C@H](O)[C@@H](C)/C=C(\\C)[C@H](OC(N)=O)[C@@H](OC)/C=C\\C=C(/C)C(=O)NC(=CC1=O)C2=O", "note": "[Tanespimycin] + O=C(O)c1ccc(-c2c[nH]c3ncc(-c4ccccc4)cc23)cc1C1CCCC1 [GSK650394] (first compound 0.002 µM, partner dose 0.16 µM)", "cleaved PARP positive nuclei fraction": 118}, {"molecule": "CC1(C)NC(=O)N(c2ccc([N+](=O)[O-])c(C(F)(F)F)c2)C1=O", "note": "[nilutamide] + C=CCn1c(=O)c2cnc(Nc3ccc(N4CCN(C)CC4)cc3)nc2n1-c1cccc(C(C)(C)O)n1 [MK1775] (first compound 1 µM, partner dose 0.02 µM)", "cleaved PARP positive nuclei fraction": 128}, {"molecule": "Nc1cccc2c1CN(C1CCC(=O)NC1=O)C2=O", "note": "(stereo not given) [lenalidomide] + CC1(C)NC(=O)N(c2ccc([N+](=O)[O-])c(C(F)(F)F)c2)C1=O [nilutamide] (first compound 1 µM, partner dose 1 µM)", "cleaved PARP positive nuclei fraction": 89.3}, {"molecule": "CO[C@@H]1[C@H](N(C)C(=O)c2ccccc2)C[C@H]2O[C@]1(C)n1c3ccccc3c3c4c(c5c6ccccc6n2c5c31)C(=O)NC4", "note": "[Midostaurin] + NCC(=O)Nc1ccc(-n2nc(C(F)(F)F)cc2-c2ccc3c(ccc4ccccc43)c2)cc1 [OSU03012] (first compound 0.08 µM, partner dose 1 µM)", "cleaved PARP positive nuclei fraction": 175}, {"molecule": "C=CCn1c(=O)c2cnc(Nc3ccc(N4CCN(C)CC4)cc3)nc2n1-c1cccc(C(C)(C)O)n1", "note": "+ C[C@@H]1CCN(C(=O)CC#N)C[C@@H]1N(C)c1ncnc2[nH]ccc12 [CP690550] (first compound 0.02 µM, partner dose 1 µM)", "cleaved PARP positive nuclei fraction": 124}, {"molecule": "C=CCNC1=C2C[C@@H](C)C[C@H](OC)[C@H](O)[C@@H](C)/C=C(\\C)[C@H](OC(N)=O)[C@@H](OC)/C=C\\C=C(/C)C(=O)NC(=CC1=O)C2=O", "note": "[Tanespimycin] + C=CCn1c(=O)c2cnc(Nc3ccc(N4CCN(C)CC4)cc3)nc2n1-c1cccc(C(C)(C)O)n1 [MK1775] (first compound 0.002 µM, partner dose 0.02 µM)", "cleaved PARP positive nuclei fraction": 156}, {"molecule": "CC(C)(C)c1cnc(CSc2cnc(NC(=O)C3CCNCC3)s2)o1", "note": "+ Cc1cc(N2CCOCC2)cc2[nH]c(-c3c(NC[C@@H](O)c4cccc(Cl)c4)cc[nH]c3=O)nc12 [BMS536924] (first compound 0.01 µM, partner dose 0.2 µM)", "cleaved PARP positive nuclei fraction": 150}, {"molecule": "Cc1ccc(NC(=O)c2cccc(N(C)C)c2)cc1NC(=O)c1ccc(O)cc1", "note": "+ NCC(=O)Nc1ccc(-n2nc(C(F)(F)F)cc2-c2ccc3c(ccc4ccccc43)c2)cc1 [OSU03012] (first compound 2 µM, partner dose 1 µM)", "cleaved PARP positive nuclei fraction": 225}, {"molecule": "OCc1c[nH]c2ccccc12", "note": "[Indole-3-carbinol] + O=C(CCCCCCC(=O)Nc1ccccc1)NO [vorinostat] (first compound 0.8 µM, partner dose 0.08 µM)", "cleaved PARP positive nuclei fraction": 114}, {"molecule": "C=CCn1c(=O)c2cnc(Nc3ccc(N4CCN(C)CC4)cc3)nc2n1-c1cccc(C(C)(C)O)n1", "note": "+ NCC(=O)Nc1ccc(-n2nc(C(F)(F)F)cc2-c2ccc3c(ccc4ccccc43)c2)cc1 [OSU03012] (first compound 0.02 µM, partner dose 1 µM)", "cleaved PARP positive nuclei fraction": 109}]}]}
